# This is one part of the list. Some results for these compounds are left out of this collection, so the calls shown say nothing about other tests.
# Assay: GFP-LC3 puncta formation changes – imaging, high-content, MEF GFP-LC3, primary screen (AID 463193);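 note: cell loss after 18 h compound exposure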
# Settings: autophagy, measured here: cell loss, nuclei count, at 10 µM
row,Compound,toxicity [%]
1,O=C(NCC1(N2CCCCC2)CCCCC1)c1cc([N+](=O)[O-])ccc1Cl,-15
2,CC(C)N1C(=O)CC2(CCN(CCOC(=O)C(O)(c3ccccc3)c3ccccc3)CC2)C1=O,-4.83
3,CN(C)C1CCCC1OC(=O)C(O)(c1ccccc1)c1ccccc1 (centres undefined),6.11
4,Cc1ccccc1C(=O)NCC1(N2CCCCC2)CCCCC1,-3.89
5,CCN1CCCC(OC(=O)C2(O)c3ccccc3C=Cc3ccccc32)C1 (centres undefined),0.326
6,C=CCN1CCN(CCOC(=O)C(O)(c2ccccc2)c2ccccc2)CC1,7.15
7,COc1cccc(C(=O)NCC2(N3CCCCC3)CCCCC2)c1,29.7
8,O=C(OC1CN2CCC1CC2)C(CO)(c1ccccc1)c1ccccc1 (centres undefined),-2.03
9,CN(C)c1cccc(C(=O)NCC2(N(C)C)CCCCC2)c1,6.95

# Reference: PubChem BioAssay AID463193 (University of Pittsburgh Molecular Library Screening Center, 2010)
